# Reference: the supplement of paper PMC8728848
# This is one part of the list.
# Legend:
# Experiment in all cases: glycan array binding signal (z-score within array); higher = stronger binding
# Conditions in all cases: glycan notation: IUPAC condensed, linker removed
# [1] = biological target: Glc(b1-4)Glc
# Summary of the method: (§1)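 Arrays were curated from the Consortium for Functional Glycomics database, 3228 in total, and kept only where the protein sequence was available. Binding is expressed as a within-array Z-score. This score was averaged across arrays of the same protein sequence at different concentrations or buffers and across linkers, and negative values can be read as non-binding.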
# [2] = biological target: Glc(b1-6)Glc
# Summary of the method: as §1
# [3] = biological target: GlcA(b1-3)Gal
# Summary of the method: as §1
# [4] = biological target: GlcA(b1-3)GlcNAc
# Summary of the method: as §1
# [5] = biological target: GlcA(b1-6)Gal
# Summary of the method: as §1
# [6] = biological target: GlcA3S(b1-3)Gal(b1-4)GlcNAc(b1-2)Man
# Summary of the method: as §1
# [7] = biological target: GlcA3S(b1-3)Gal(b1-4)GlcNAc(b1-3)Gal(b1-4)Glc
# Summary of the method: as §1
# [8] = biological target: GlcNAc(a1-3)Gal(b1-4)GlcNAc
# Summary of the method: as §1
# [9] = biological target: GlcNAc(a1-4)Gal(b1-3)GlcNAc
# Summary of the method: as §1
# [10] = biological target: GlcNAc(a1-4)Gal(b1-4)GalNAc
# Summary of the method: as §1
# [11] = biological target: GlcNAc(a1-4)Gal(b1-4)GlcNAc
# Summary of the method: as §1
# [12] = biological target: GlcNAc(a1-4)Gal(b1-4)GlcNAc(b1-3)Gal(b1-4)Glc
# Summary of the method: as §1
# [13] = biological target: GlcNAc(a1-4)Gal(b1-4)GlcNAc(b1-3)Gal(b1-4)GlcNAc
# Summary of the method: as §1
# [14] = biological target: GlcNAc(a1-4)Gal(b1-4)GlcNAc(b1-3)Gal(b1-4)GlcNAc(b1-3)Gal(b1-4)GlcNAc
# Summary of the method: as §1
# [15] = biological target: GlcNAc(a1-4)Gal(b1-4)GlcNAc(b1-3)Gal(b1-4)[Fuc(a1-3)]GlcNAc(b1-3)Gal(b1-4)[Fuc(a1-3)]GlcNAc
# Summary of the method: as §1
# [16] = biological target: GlcNAc(a1-6)Gal(b1-4)GlcNAc
# Summary of the method: as §1
# [17] = biological target: GlcNAc(b1-2)Gal(b1-3)GalNAc
# Summary of the method: as §1
# [18] = biological target: GlcNAc(b1-2)Man(a1-3)[GlcNAc(b1-2)Man(a1-6)]Man(b1-4)GlcNAc(b1-4)GlcNAc
# Summary of the method: as §1
# [19] = biological target: GlcNAc(b1-2)Man(a1-3)[GlcNAc(b1-2)Man(a1-6)]Man(b1-4)GlcNAc(b1-4)[Fuc(a1-6)]GlcNAc
# Summary of the method: as §1
# [20] = biological target: GlcNAc(b1-2)Man(a1-3)[GlcNAc(b1-4)][GlcNAc(b1-2)Man(a1-6)]Man(b1-4)GlcNAc(b1-4)GlcNAc
# Summary of the method: as §1
# [21] = biological target: GlcNAc(b1-2)Man(a1-3)[GlcNAc(b1-4)][GlcNAc(b1-2)Man(a1-6)]Man(b1-4)GlcNAc(b1-4)[Fuc(a1-6)]GlcNAc
# Summary of the method: as §1
# [22] = biological target: GlcNAc(b1-2)[GlcNAc(b1-4)]Man(a1-3)[GlcNAc(b1-2)Man(a1-6)]Man(b1-4)GlcNAc(b1-4)GlcNAc
# Summary of the method: as §1
# [23] = biological target: GlcNAc(b1-2)[GlcNAc(b1-4)]Man(a1-3)[GlcNAc(b1-4)][GlcNAc(b1-2)Man(a1-6)]Man(b1-4)GlcNAc(b1-4)GlcNAc
# Summary of the method: as §1
# [24] = biological target: GlcNAc(b1-2)[GlcNAc(b1-4)]Man(a1-3)[GlcNAc(b1-4)][GlcNAc(b1-2)[GlcNAc(b1-6)]Man(a1-6)]Man(b1-4)GlcNAc(b1-4)GlcNAc
# Summary of the method: as §1
# [25] = biological target: GlcNAc(b1-2)[GlcNAc(b1-4)]Man(a1-3)[GlcNAc(b1-4)][GlcNAc(b1-2)[GlcNAc(b1-6)]Man(a1-6)]Man(b1-4)GlcNAc(b1-4)[Fuc(a1-6)]GlcNAc
# Summary of the method: as §1
# [26] = biological target: GlcNAc(b1-2)[GlcNAc(b1-6)]Man(a1-6)[GlcNAc(b1-2)Man(a1-3)]Man(b1-4)GlcNAc(b1-4)GlcNAc
# Summary of the method: as §1
# [27] = biological target: GlcNAc(b1-2)[GlcNAc(b1-6)]Man(a1-6)[GlcNAc(b1-2)Man(a1-3)]Man(b1-4)GlcNAc(b1-4)[Fuc(a1-6)]GlcNAc
# Summary of the method: as §1
# [28] = biological target: GlcNAc(b1-2)[GlcNAc(b1-6)]Man(a1-6)[GlcNAc(b1-4)][GlcNAc(b1-2)Man(a1-3)]Man(b1-4)GlcNAc(b1-4)GlcNAc
# Summary of the method: as §1
# [29] = biological target: GlcNAc(b1-3)Fuc
# Summary of the method: as §1
# [30] = biological target: GlcNAc(b1-3)Gal
# Summary of the method: as §1
# [31] = biological target: GlcNAc(b1-3)Gal(b1-3)GalNAc
# Summary of the method: as §1
# [32] = biological target: GlcNAc(b1-3)Gal(b1-4)Glc
# Summary of the method: as §1
# [33] = biological target: GlcNAc(b1-3)Gal(b1-4)GlcNAc
# Summary of the method: as §1
# [34] = biological target: GlcNAc(b1-3)Gal(b1-4)GlcNAc(b1-2)Man(a1-3)[GlcNAc(b1-3)Gal(b1-4)GlcNAc(b1-2)Man(a1-6)]Man(b1-4)GlcNAc(b1-4)GlcNAc
# Summary of the method: as §1
# [35] = biological target: GlcNAc(b1-3)Gal(b1-4)GlcNAc(b1-2)Man(a1-3)[GlcNAc(b1-3)Gal(b1-4)GlcNAc(b1-2)Man(a1-6)]Man(b1-4)GlcNAc(b1-4)[Fuc(a1-6)]GlcNAc
# Summary of the method: as §1
# [36] = biological target: GlcNAc(b1-3)Gal(b1-4)GlcNAc(b1-2)[GlcNAc(b1-3)Gal(b1-4)GlcNAc(b1-6)]Man(a1-6)[GlcNAc(b1-3)Gal(b1-4)GlcNAc(b1-2)Man(a1-3)]Man(b1-4)GlcNAc(b1-4)GlcNAc
# Summary of the method: as §1
# [37] = biological target: GlcNAc(b1-3)Gal(b1-4)GlcNAc(b1-3)Gal(b1-4)GlcNAc
# Summary of the method: as §1
# [38] = biological target: GlcNAc(b1-3)Gal(b1-4)GlcNAc(b1-3)Gal(b1-4)GlcNAc(b1-2)Man(a1-3)[GlcNAc(b1-3)Gal(b1-4)GlcNAc(b1-3)Gal(b1-4)GlcNAc(b1-2)Man(a1-6)]Man(b1-4)GlcNAc(b1-4)GlcNAc
# Summary of the method: as §1
# [39] = biological target: GlcNAc(b1-3)Gal(b1-4)GlcNAc(b1-3)Gal(b1-4)GlcNAc(b1-2)Man(a1-3)[GlcNAc(b1-3)Gal(b1-4)GlcNAc(b1-3)Gal(b1-4)GlcNAc(b1-2)Man(a1-6)]Man(b1-4)GlcNAc(b1-4)[Fuc(a1-6)]GlcNAc
# Summary of the method: as §1
# [40] = biological target: GlcNAc(b1-3)Gal(b1-4)GlcNAc(b1-3)Gal(b1-4)GlcNAc(b1-2)[GlcNAc(b1-3)Gal(b1-4)GlcNAc(b1-3)Gal(b1-4)GlcNAc(b1-6)]Man(a1-6)[GlcNAc(b1-3)Gal(b1-4)GlcNAc(b1-3)Gal(b1-4)GlcNAc(b1-2)Man(a1-3)]Man(b1-4)GlcNAc(b1-4)[Fuc(a1-6)]GlcNAc
# Summary of the method: as §1
# [41] = biological target: GlcNAc(b1-3)Gal(b1-4)GlcNAc(b1-3)Gal(b1-4)GlcNAc(b1-3)Gal(b1-4)GlcNAc(b1-2)Man(a1-3)[GlcNAc(b1-3)Gal(b1-4)GlcNAc(b1-3)Gal(b1-4)GlcNAc(b1-3)Gal(b1-4)GlcNAc(b1-2)Man(a1-6)]Man(b1-4)GlcNAc(b1-4)GlcNAc
# Summary of the method: as §1
# [42] = biological target: GlcNAc(b1-3)Gal(b1-4)GlcNAc(b1-3)Gal(b1-4)GlcNAc(b1-3)Gal(b1-4)GlcNAc(b1-2)Man(a1-3)[GlcNAc(b1-3)Gal(b1-4)GlcNAc(b1-3)Gal(b1-4)GlcNAc(b1-3)Gal(b1-4)GlcNAc(b1-2)Man(a1-6)]Man(b1-4)GlcNAc(b1-4)[Fuc(a1-6)]GlcNAc
# Summary of the method: as §1
# [43] = biological target: GlcNAc(b1-3)Gal(b1-4)GlcNAc(b1-3)Gal(b1-4)GlcNAc(b1-3)Gal(b1-4)GlcNAc(b1-2)[GlcNAc(b1-3)Gal(b1-4)GlcNAc(b1-3)Gal(b1-4)GlcNAc(b1-3)Gal(b1-4)GlcNAc(b1-6)]Man(a1-6)[GlcNAc(b1-3)Gal(b1-4)GlcNAc(b1-3)Gal(b1-4)GlcNAc(b1-3)Gal(b1-4)GlcNAc(b1-2)Man(a1-3)]Man(b1-4)GlcNAc(b1-4)[Fuc(a1-6)]GlcNAc
# Summary of the method: as §1
# [44] = biological target: GlcNAc(b1-3)Gal(b1-4)GlcNAc(b1-3)Gal(b1-4)GlcNAc(b1-3)Gal(b1-4)GlcNAc(b1-3)Gal(b1-4)GlcNAc(b1-2)Man(a1-3)[GlcNAc(b1-3)Gal(b1-4)GlcNAc(b1-3)Gal(b1-4)GlcNAc(b1-3)Gal(b1-4)GlcNAc(b1-3)Gal(b1-4)GlcNAc(b1-2)Man(a1-6)]Man(b1-4)GlcNAc(b1-4)GlcNAc
# Summary of the method: as §1
# [45] = biological target: GlcNAc(b1-3)Gal(b1-4)GlcNAc(b1-3)Gal(b1-4)GlcNAc(b1-3)Gal(b1-4)GlcNAc(b1-3)Gal(b1-4)GlcNAc(b1-2)Man(a1-3)[GlcNAc(b1-3)Gal(b1-4)GlcNAc(b1-3)Gal(b1-4)GlcNAc(b1-3)Gal(b1-4)GlcNAc(b1-3)Gal(b1-4)GlcNAc(b1-2)Man(a1-6)]Man(b1-4)GlcNAc(b1-4)[Fuc(a1-6)]GlcNAc
# Summary of the method: as §1
binder,measurement,setting,value
MUB70 (Lactobacillus reuteri) (protein) CVHVQYIDGETDQMLRQDDLDGYTDETIPYSTAEGIKKFEGDGYELFKDNFPAGEKFDNDDTNDQFYTVIF,glycan array binding signal (z-score),[1],-0.187
same,glycan array binding signal (z-score),[2],-0.894
same,glycan array binding signal (z-score),[3],-0.592
same,glycan array binding signal (z-score),[4],0.075
same,glycan array binding signal (z-score),[5],-0.677
same,glycan array binding signal (z-score),[6],0.326
same,glycan array binding signal (z-score),[7],-0.095
same,glycan array binding signal (z-score),[8],-0.153
same,glycan array binding signal (z-score),[9],-0.209
same,glycan array binding signal (z-score),[10],-0.747
same,glycan array binding signal (z-score),[11],-0.149
same,glycan array binding signal (z-score),[12],0.325
same,glycan array binding signal (z-score),[13],0.39
same,glycan array binding signal (z-score),[14],-0.705
same,glycan array binding signal (z-score),[15],-0.45
same,glycan array binding signal (z-score),[16],-0.107
same,glycan array binding signal (z-score),[17],-0.21
same,glycan array binding signal (z-score),[18],-0.497
same,glycan array binding signal (z-score),[19],-0.609
same,glycan array binding signal (z-score),[20],0.036
same,glycan array binding signal (z-score),[21],0.5
same,glycan array binding signal (z-score),[22],0.353
same,glycan array binding signal (z-score),[23],0.655
same,glycan array binding signal (z-score),[24],0.034
same,glycan array binding signal (z-score),[25],0.481
same,glycan array binding signal (z-score),[26],-0.641
same,glycan array binding signal (z-score),[27],0.001
same,glycan array binding signal (z-score),[28],-0.216
same,glycan array binding signal (z-score),[29],0.101
same,glycan array binding signal (z-score),[30],-0.757
same,glycan array binding signal (z-score),[31],-0.359
same,glycan array binding signal (z-score),[32],-0.483
same,glycan array binding signal (z-score),[33],-0.453
same,glycan array binding signal (z-score),[34],-0.049
same,glycan array binding signal (z-score),[35],1.11
same,glycan array binding signal (z-score),[36],-0.032
same,glycan array binding signal (z-score),[37],-0.485
same,glycan array binding signal (z-score),[38],2.17
same,glycan array binding signal (z-score),[39],0.956
same,glycan array binding signal (z-score),[40],0.962
same,glycan array binding signal (z-score),[41],1.75
same,glycan array binding signal (z-score),[42],0.974
same,glycan array binding signal (z-score),[43],0.94
same,glycan array binding signal (z-score),[44],0.142
same,glycan array binding signal (z-score),[45],0.523

# Shown with bars between the fields: part of the list above
binder | measurement | setting | value
MUB70 (Lactobacillus reuteri) (protein) CVHVQYIDGETDQMLRQDDLDGYTDETIPYSTAEGIKKFEGDGYELFKDNFPAGEKFDNDDTNDQFYTVIF | glycan array binding signal (z-score) | [5] | -0.677
same | glycan array binding signal (z-score) | [6] | 0.326
